Patent publication US20040043929A1
These are yes or no findings as the source states them, for the method shown. A result given as binding can be weak or reduced; the word gives no strength.

Experiments:
[1] = molecular target: voltage gated potassium channel modulatory subunit (human); test: yeast two-hybrid (PathCalling, Gal4-BD / Gal4-AD fusions)
[2] = molecular target: voltage gated potassium channel modulatory subunit (human); test: yeast two-hybrid (PathCalling)

binding [1]: binds
binding [2]: binds
B1: Calpain 3 (NOV23b, CG57509-02) (enzyme)
chain: MPTVISASVAPRTAAEPRSPGPVPHPAQSKATEAGGGNPSGIYSAIISRNFPIIGVKEKTFEQLHKKCLEKKVLYVDPEFPPDETSLFYSQKFPIQFVWKRPPEICENPRFIIDGANRTDICQGELGDCWFLAAIACLTLNQHLLFRVIPHDQSFIENYAGIFHFQFWRYGEWVDVVIDDCLPTYNNQLVFTKSNHRNEFWSALLEKAYAKLHGSYEALKGGNTTEAMEDFTGGVAEFFEIRDAPSDMYKIMKKAIERGSLMGCSIDDGTNMTYGTSPSGLNMGELIARMVRNMDNSLLQDSDLDPRGSDERPTRTIIPVQYETRMACGLVRGHAYSVTGLDEVPFKGEKVKLVRLRNPWGQVEWNGSWSDRWKDWSFVDKDEKARLQHQVTEDGEFWMSYEDFIYHFTKLEICNLTADALQSDKLQTWTVSVNEGRWVRGCSAGGCRNFPDTFWTNPQYRLKLLEEDDDPDDSEVICSFLVALMQKNRRKDRKLGASLFTIGFAIYEVPKEMHGNKQHLQKDFFLYNASKARSKTYINMREVSQRFRLPPSEYVIVPSTYEPHQEGEFILRVFSEKRNLSEEVENTISVDRPVKKKKTKPIIFVSDRANSNKELGVDQESEEGKGKTSPDKQKQSPQPQPGSSDQESEEQQQFRNIFKQIAGDDMEICADELKKVLNTVVNKHKDLKTHGFTLESCRSMIALMDTDGSGKLNLQEFHHLWNKIKAWQKIFKHYDTDQSGTINSYEMRNAVNDAGFHLNNQLYDIITMRYADKHMNIDFDSFICCFVRLEGMFRAFHAFDKDGDGIIKLNVLEWLQLTMYA
